PubChem BioAssay AID1259405, NCATS | 2018
This is a random part of about 50,000 deposited reagents. About 4,000 of them (8%) count as active. 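Mouse siRNA library applied to hamster cells; one well for each siRNA.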 A number with no mark means an inactive call. The numbers tell different reagents against one gene apart.

Screen: 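Silenced genes that increase secreted GFP made by CHO cells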 (primary screen)
Cell system: Chinese hamster CHO-K1 ovary cells with stable secreted eGFP expression
Reagents: single siRNA against mouse genes, 0.8 pmol siRNA per well (2 µl of 400 nM stock)
Time to read-out: 3 days
Measurement: 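Per-well intracellular GFP measured by laser scanning cytometry, plus viability from ATP luminescence, each relative to plate median of non-targeting control wells, in %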
Reading the numbers: GFP, % of control: higher = more GFP per well, higher productivity; viability (ATP), % of control: higher = more viable cells (more ATP)
Call rule: 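Called active when intracellular GFP, relative to negative control, is at or above 120%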

| gene | reagent | GFP, % of control | viability (ATP), % of control |
| --- | --- | --- | --- |
| Aldh1a3 | 1 | 47.8 | 34.9 |
| Aldh1a3 | 2 | 143 (active) | 80.9 |
| Aldh1a3 | 3 | 85 | 87.1 |
| Or4a69 | 1 | 91 | 67.5 |
| Or4a69 | 2 | 123 (active) | 63.7 |
| Or4a69 | 3 | 103 | 121 |
| Cenps | 1 | 37.2 | 39.9 |
| Cenps | 2 | 155 (active) | 55.1 |
| Cenps | 3 | 66.3 | 73.2 |
| Comt | 1 | 117 | 100 |
| Comt | 2 | 73.3 | 135 |
| Comt | 3 | 106 | 98.3 |
| Cfap57 | 1 | 99.4 | 95 |
| Cfap57 | 2 | 51.5 | 71.1 |
| Cfap57 | 3 | 94.1 | 67.2 |
| Tmem230 | 1 | 66.6 | 38.7 |
| Tmem230 | 2 | 52.4 | 70.4 |
| Tmem230 | 3 | 83.9 | 80.2 |
| Rnf133 | 1 | 81.1 | 74.2 |
| Rnf133 | 2 | 71.4 | 54.8 |
| Rnf133 | 3 | 88.2 | 80.9 |
| Pi4k2a | 1 | 74.4 | 66.8 |
| Ndufs4 | 1 | 68.6 | 93.8 |
| Ndufs4 | 2 | 109 | 92 |

Next part (6 carried over from the part before).
| gene | reagent | GFP, % of control | viability (ATP), % of control |
| --- | --- | --- | --- |
| Rnf133 | 1 | 81.1 | 74.2 |
| Rnf133 | 2 | 71.4 | 54.8 |
| Rnf133 | 3 | 88.2 | 80.9 |
| Pi4k2a | 1 | 74.4 | 66.8 |
| Ndufs4 | 1 | 68.6 | 93.8 |
| Ndufs4 | 2 | 109 | 92 |
| 4921524J17Rik | 1 | 99.6 | 95.1 |
| 4921524J17Rik | 2 | 71 | 53.2 |
| 4921524J17Rik | 3 | 87.6 | 108 |
| Abi1 | 1 | 69.9 | 67.9 |
| Abi1 | 2 | 72.5 | 92.3 |
| Abi1 | 3 | 102 | 85.4 |
| Klhl25 | 1 | 61.1 | 72.6 |
| Klhl25 | 2 | 53.8 | 63.8 |
| Klhl25 | 3 | 68.4 | 59.9 |
| Zfp64 | 1 | 75.1 | 48.9 |
| Zfp64 | 2 | 95.9 | 82.1 |
| Vta1 | 1 | 93.1 | 97 |
| Vta1 | 2 | 24.6 | 42.4 |
| Vta1 | 3 | 79.2 | 57.6 |
| Zfp58 | 1 | 43.3 | 53.8 |
| Zfp58 | 2 | 48.6 | 75.3 |
| Zfp58 | 3 | 84.2 | 82.3 |
| Zscan22 | 1 | 79.7 | 94.5 |
| Zscan22 | 2 | 92.6 | 85.9 |
| Rab28 | 1 | 100 | 50.6 |
| Rab28 | 2 | 51.5 | 56.7 |
| Rab28 | 3 | 58.4 | 54.9 |
| Tubb4b | 1 | 95.7 | 93.4 |
| Tubb4b | 2 | 91 | 85.3 |
| G3bp1 | 1 | 80.9 | 102 |
| G3bp1 | 2 | 44.6 | 50.3 |
| G3bp1 | 3 | 76.5 | 75.1 |
| Gm5124 | 1 | 100 | 73 |
| Gm5124 | 2 | 119 | 92.9 |
| Gm5124 | 3 | 77.9 | 123 |
| Lonrf3 | 1 | 86.9 | 84 |
| Lonrf3 | 2 | 94.2 | 78.1 |
| Lonrf3 | 3 | 70.1 | 73.4 |
